# Experimental data from the supplement of paper PMC12819154, “High-throughput peptide-centric local stability assay extends protein–ligand identification to membrane proteins, tissues and bacteria” (Nature Structural & Molecular Biology, 2025).
# By UniProt entry, the sequences of proteins in these tests, tags left out. Where a name states a change or a piece, a line headed by the entry shows the natural chain unless it says otherwise.
# UniProt P45475: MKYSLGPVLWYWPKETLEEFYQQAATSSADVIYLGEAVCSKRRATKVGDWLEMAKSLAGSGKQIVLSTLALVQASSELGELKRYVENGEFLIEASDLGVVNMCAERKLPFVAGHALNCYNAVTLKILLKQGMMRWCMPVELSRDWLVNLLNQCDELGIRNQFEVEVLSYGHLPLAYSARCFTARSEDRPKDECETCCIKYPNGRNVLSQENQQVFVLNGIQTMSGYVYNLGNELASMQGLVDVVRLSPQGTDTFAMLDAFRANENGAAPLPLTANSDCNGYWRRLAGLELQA
# UniProt P37680: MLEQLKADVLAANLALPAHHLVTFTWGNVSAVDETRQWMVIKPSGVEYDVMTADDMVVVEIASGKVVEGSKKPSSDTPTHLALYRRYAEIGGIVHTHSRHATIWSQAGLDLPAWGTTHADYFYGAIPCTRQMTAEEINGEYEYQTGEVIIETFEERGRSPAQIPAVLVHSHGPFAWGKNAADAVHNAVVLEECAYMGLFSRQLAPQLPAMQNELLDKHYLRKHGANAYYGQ
# UniProt P43674: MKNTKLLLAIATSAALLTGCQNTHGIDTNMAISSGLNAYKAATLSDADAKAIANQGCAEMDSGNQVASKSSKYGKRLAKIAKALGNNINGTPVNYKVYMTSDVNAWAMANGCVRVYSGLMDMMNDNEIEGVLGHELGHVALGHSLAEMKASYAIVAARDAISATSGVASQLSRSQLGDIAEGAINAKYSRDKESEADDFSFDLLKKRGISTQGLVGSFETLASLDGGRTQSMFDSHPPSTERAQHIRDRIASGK
# UniProt P39391: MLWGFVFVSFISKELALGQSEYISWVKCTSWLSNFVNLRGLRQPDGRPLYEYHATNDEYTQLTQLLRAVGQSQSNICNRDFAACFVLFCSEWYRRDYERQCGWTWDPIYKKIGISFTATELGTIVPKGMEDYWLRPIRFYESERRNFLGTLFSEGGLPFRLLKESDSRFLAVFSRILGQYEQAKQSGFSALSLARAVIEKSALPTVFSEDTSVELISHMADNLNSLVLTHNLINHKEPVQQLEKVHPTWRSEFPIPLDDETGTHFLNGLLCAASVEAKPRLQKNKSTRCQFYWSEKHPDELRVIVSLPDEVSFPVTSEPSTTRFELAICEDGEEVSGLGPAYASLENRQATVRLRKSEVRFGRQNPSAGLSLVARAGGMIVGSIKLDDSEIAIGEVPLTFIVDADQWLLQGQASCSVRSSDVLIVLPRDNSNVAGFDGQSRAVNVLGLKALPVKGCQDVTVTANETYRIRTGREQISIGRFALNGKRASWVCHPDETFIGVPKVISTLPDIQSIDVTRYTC
# UniProt P39360: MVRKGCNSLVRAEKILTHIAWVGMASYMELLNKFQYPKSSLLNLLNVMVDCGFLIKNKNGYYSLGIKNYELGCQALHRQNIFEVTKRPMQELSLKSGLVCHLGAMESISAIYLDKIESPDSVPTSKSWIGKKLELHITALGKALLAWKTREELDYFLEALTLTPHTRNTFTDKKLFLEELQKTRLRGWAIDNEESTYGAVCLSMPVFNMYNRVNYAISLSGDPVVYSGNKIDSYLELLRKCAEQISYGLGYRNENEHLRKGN
# This is one part of the list. Small differences around the control level are noise.
# Compound: CC1(C)S[C@@H]2[C@H](NC(=O)[C@H](N)c3ccccc3)C(=O)N2[C@H]1C(=O)O [ampicillin]
# Assay: log2 fold change of tryptic peptide abundance, ligand vs vehicle (limited proteolysis) (log2 ratio); higher = more trypsin-susceptible (destabilized)
# Details: ligand concentration: 10 uM; sample: E. coli crude lysate
row,Target,log2 fold change
1,"UniProt P45475 (peptide sequence: DECETCCIKYPNGR, peptide start residue: 191)",0.271
2,"UniProt P37680 (peptide sequence: YAEIGGIVHTHSR, peptide start residue: 87)",0.231
3,"UniProt P43674 (peptide sequence: TQSMFDSHPPSTER, peptide start residue: 229)",0.325
4,"UniProt P39391 (peptide sequence: ILGQYEQAK, peptide start residue: 176)",-0.212
5,"UniProt P39360 (peptide sequence: QNIFEVTKRPMQELSLK, peptide start residue: 79)",-0.678
